Results deposited as PubChem BioAssay AID1259308 (NCATS, 2017)

Aim: 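Genes whose loss raises luciferase production in HEK293 cells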 (primary screen)
Cells: human HEK293 embryonic kidney cells stably expressing firefly luciferase (HEK-CMV-Luc2-Hygro)
Reagent: single siRNA against human genes, 0.8 pmol siRNA per well
Time to read-out: 72 h
Measurement: 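Reporter luminescence and viable-cell signal on separate replicate plates, given as percent of non-targeting control and median/MAD z-scores, plus per-cell luciferase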
Direction: total luciferase, z-score and total luciferase, % of control: higher = more reporter protein produced; luciferase per cell, z-score: higher = more reporter output per viable cell; viable cells, % of control: higher = more viable cells
Hit rule: 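Active when the median/MAD z-score for overall luciferase is greater than 3; a gene was taken forward for validation with new siRNAs if at least two of its three siRNAs passed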
Meaning of the calls: active = raised luciferase; inactive = no rise
This is a random part of about 59,000 reagents tested. Over the whole deposit, about 1,510 (2.6%) got an active call. 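Calls use total luciferase alone and ignore viability, so some active siRNAs may act by altering cell number.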 Reagents against one gene are numbered here.

no.	target gene	reagent no.	total luciferase, z-score	total luciferase, % of control	luciferase per cell, z-score	viable cells, % of control	activity call
1	SH3BGRL2 (SH3 domain binding glutamate rich protein like 2)	1	-1.03	61.4	-0.623	80.8	inactive
2	SH3BGRL2 (SH3 domain binding glutamate rich protein like 2)	2	-0.223	77.4	0.391	78.1	inactive
3	SH3BGRL2 (SH3 domain binding glutamate rich protein like 2)	3	-0.0597	80.7	-0.147	93.7	inactive
4	UBE2QL1 (ubiquitin conjugating enzyme E2 QL1)	1	-0.499	72	0.115	78	inactive
5	UBE2QL1 (ubiquitin conjugating enzyme E2 QL1)	2	0.554	92.9	0.11	101	inactive
6	UBE2QL1 (ubiquitin conjugating enzyme E2 QL1)	3	0.616	94.1	0.17	101	inactive
7	ZNF76 (zinc finger protein 76)	1	0.0636	83.2	-0.146	96.6	inactive
8	ZNF76 (zinc finger protein 76)	2	-0.77	66.6	-0.136	77.1	inactive
9	ZNF76 (zinc finger protein 76)	3	0.91	100	0.614	95	inactive
10	SERPINA6 (serpin family A member 6)	1	-1.38	54.5	-1.67	94.6	inactive
11	SERPINA6 (serpin family A member 6)	2	2.58	133	1.96	88.8	inactive
12	SERPINA6 (serpin family A member 6)	3	1.4	110	0.936	95.8	inactive
13	LMNB1 (lamin B1)	1	-0.66	68.8	-0.587	89.7	inactive
14	LMNB1 (lamin B1)	2	-2.34	35.3	-1.99	66.7	inactive
15	LMNB1 (lamin B1)	3	-0.788	66.2	-0.115	76.3	inactive
16	ASIC3 (acid sensing ion channel subunit 3)	1	0.0239	82.4	-0.211	97.3	inactive
17	ASIC3 (acid sensing ion channel subunit 3)	2	2.73	136	1.85	93.4	inactive
18	ASIC3 (acid sensing ion channel subunit 3)	3	-0.244	77	-0.743	105	inactive
19	OTOS (otospiralin)	1	-0.102	79.9	0.487	78.5	inactive
20	OTOS (otospiralin)	2	1.42	110	0.84	98.7	inactive
21	OTOS (otospiralin)	3	-0.272	76.5	-1.83	138	inactive
22	MED14OS (MED14 opposite strand)	1	0.9	99.8	0.358	101	inactive
23	MED14OS (MED14 opposite strand)	2	2.48	131	2.95	67.5	inactive
24	MED14OS (MED14 opposite strand)	3	0.99	102	0.612	96.6	inactive
25	SPRR4 (small proline rich protein 4)	1	0.906	99.9	1.17	82	inactive
26	SPRR4 (small proline rich protein 4)	2	0.443	90.7	1.06	76.7	inactive
27	SPRR4 (small proline rich protein 4)	3	0.952	101	1.09	84.6	inactive
28	PCBP4 (poly(rC) binding protein 4)	1	0.467	91.2	-0.065	104	inactive
29	PCBP4 (poly(rC) binding protein 4)	2	-1.43	53.5	-0.926	76.3	inactive
30	PCBP4 (poly(rC) binding protein 4)	3	1.59	114	1.82	78.5	inactive
31	ZER1 (zyg-11 related cell cycle regulator)	1	-0.997	62.1	-0.207	73.2	inactive
32	ZER1 (zyg-11 related cell cycle regulator)	2	-0.253	76.9	-0.561	99.6	inactive
33	ZER1 (zyg-11 related cell cycle regulator)	3	0.626	94.3	0.133	102	inactive
34	MMACHC (metabolism of cobalamin associated C)	1	0.153	84.9	-0.158	99	inactive
35	MMACHC (metabolism of cobalamin associated C)	2	0.205	86	0.523	83.7	inactive
36	MMACHC (metabolism of cobalamin associated C)	3	-0.518	71.6	-0.248	85.4	inactive
37	HEXB (hexosaminidase subunit beta)	1	-1.43	53.4	-1.53	89.4	inactive
38	HEXB (hexosaminidase subunit beta)	2	-1.11	59.9	-1.7	105	inactive
39	HEXB (hexosaminidase subunit beta)	3	0.588	93.6	0.31	96.4	inactive
40	TEX264 (testis expressed 264, ER-phagy receptor)	1	2.27	127	3.06	63.5	inactive
41	TEX264 (testis expressed 264, ER-phagy receptor)	2	-0.254	76.8	0.159	82.3	inactive
42	TEX264 (testis expressed 264, ER-phagy receptor)	3	-1.69	48.3	-1.35	76.9	inactive
43	ZNF511 (zinc finger protein 511)	1	-0.856	64.9	-0.427	81.1	inactive
44	ZNF511 (zinc finger protein 511)	2	-0.908	63.8	-0.394	79.1	inactive
45	ZNF511 (zinc finger protein 511)	3	-2.54	31.5	-2.34	65.1	inactive
46	U2SURP (U2 snRNP associated SURP domain containing)	1	-0.894	64.1	0.351	65.3	inactive
47	U2SURP (U2 snRNP associated SURP domain containing)	2	1.38	109	1.01	93.8	inactive
48	U2SURP (U2 snRNP associated SURP domain containing)	3	2.11	124	1.75	87.3	inactive
49	OR2G2 (olfactory receptor family 2 subfamily G member 2)	1	4.15	164	2.64	91.8	active
50	OR2G2 (olfactory receptor family 2 subfamily G member 2)	2	0.805	97.9	0.184	104	inactive
51	OR2G2 (olfactory receptor family 2 subfamily G member 2)	3	0.627	94.4	-0.221	112	inactive
52	LAMP2 (lysosome associated membrane protein 2)	1	-0.656	68.8	-1.25	107	inactive
53	LAMP2 (lysosome associated membrane protein 2)	2	0.269	87.2	0.217	92.1	inactive
54	LAMP2 (lysosome associated membrane protein 2)	3	0.875	99.3	0.592	94.9	inactive
55	SLC15A2	1	0.0918	83.7	-0.387	104	inactive
56	SLC15A2	2	0.0565	83	0.255	86.7	inactive
57	SLC15A2	3	-0.682	68.3	-1.2	105	inactive

Reagents above with an active call (1):
target gene	reagent no.	total luciferase, z-score	total luciferase, % of control	luciferase per cell, z-score	viable cells, % of control	activity call
OR2G2 (olfactory receptor family 2 subfamily G member 2)	1	4.15	164	2.64	91.8	active
